Some results were stated once for a whole list of compounds, not compound by compound.
System: alkaline phosphatase
Settings: 25 mM HEPES, 5 mM MgCl2 buffer pH 8.5, room temperature, followed spectroscopically

## CCOc1ccc2c(c1CNC(=O)c1ccc(-c3c4ccc(=[N+](C)C)cc-4oc4cc(N(C)C)ccc34)c(C(=O)O)c1)Oc1cc(OP(=O)(O)O)ccc1C21OC(=O)c2ccccc21 (stereo not shown) [IV]
  time within which the alkaline phosphatase reaction was essentially complete: ≤ 30 min

— US20120208223A1, “FL[…] ENERGY […] ENZYME SUBSTRATES” (GE […], priority 2004, published 2012)
